Experimental data: patent publication US12201664B2, “Composition for preventing or treating allergic diseases containing mixed extract of two or more among Asiasarum root, Platycodon root, and Cinnamomi ramulus as active ingredients” (KOREA INSTITUTE OF SCIENCE AND TECHNOLOGY, priority 2018, dated 2025)
At least one compound was matched to its structure with a doubt left.

Tested on: DNCB-induced atopic dermatitis model
Test: Improvement of atopic dermatitis by oral administration of mixed extract in DNCB-induced atopic dermatitis model
Format: in vivo, NC/Nga mice
[1] = oral once daily for 10 days, ELISA

C[C@@H]1C[C@H]2[C@@H]3CCC4=CC(=O)C=C[C@]4(C)[C@@]3(F)[C@@H](O)C[C@]2(C)[C@@]1(O)C(=O)CO [dexamethasone]
expression of IFN-γ in serum [1]: increase
expression of IL-4 in serum [1]: inhibited
expression of IL-5 in serum [1]: inhibited
expression of TSLP in serum [1]: inhibited
expression of serum IgE [1]: inhibited
epidermal thickness / epidermal hyperplasia (skin tissue, H&E staining, compared to the control group (AD)): remarkable decrease
mast cell infiltration (skin tissue, toluidine blue staining, compared to the control group (AD)): decrease
